Assay [1] deals with pUL21-GFP (HSV-1) (UniProt F8RG07). Briefly: co-IP; HEK 293T co-transfected with pUL21-GFP and WT or mutant Myc-PP1α; GFP affinity capture; anti-Myc immunoblot; bound:input ratio by densitometry. On the technique in general: In western blotting, separated proteins are transferred to a membrane and probed.
Assay [2] shares this target. Briefly: co-IP; HEK 293T transfected with GFP-tagged bait, lysed 24 h post-transfection (10 mM Tris pH 7.5, 150 mM NaCl, 0.5 mM EDTA, 0.5% Igepal CA-630); GFP-Trap capture; immunoblot for endogenous PP1α and CERT.
The next assay addresses T1, pORF38-GFP (VZV) (UniProt P09289).
T1 sequence: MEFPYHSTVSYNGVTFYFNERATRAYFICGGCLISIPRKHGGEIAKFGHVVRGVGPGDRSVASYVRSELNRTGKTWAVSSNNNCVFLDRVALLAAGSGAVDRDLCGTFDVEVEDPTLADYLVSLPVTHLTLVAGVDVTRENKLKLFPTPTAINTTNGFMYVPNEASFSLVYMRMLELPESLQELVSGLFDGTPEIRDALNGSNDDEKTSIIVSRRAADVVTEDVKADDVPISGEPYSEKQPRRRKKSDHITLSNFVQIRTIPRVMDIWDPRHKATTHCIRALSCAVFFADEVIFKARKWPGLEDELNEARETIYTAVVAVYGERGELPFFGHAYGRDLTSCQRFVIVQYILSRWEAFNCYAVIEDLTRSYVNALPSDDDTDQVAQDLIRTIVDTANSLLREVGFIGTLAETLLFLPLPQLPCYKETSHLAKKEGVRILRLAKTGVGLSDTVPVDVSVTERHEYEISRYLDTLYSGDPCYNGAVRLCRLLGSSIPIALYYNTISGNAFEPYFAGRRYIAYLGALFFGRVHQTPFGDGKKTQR
The assay is described as above.

By UniProt entry, the sequences of proteins in these tests, tags left out.
UniProt F8RG07: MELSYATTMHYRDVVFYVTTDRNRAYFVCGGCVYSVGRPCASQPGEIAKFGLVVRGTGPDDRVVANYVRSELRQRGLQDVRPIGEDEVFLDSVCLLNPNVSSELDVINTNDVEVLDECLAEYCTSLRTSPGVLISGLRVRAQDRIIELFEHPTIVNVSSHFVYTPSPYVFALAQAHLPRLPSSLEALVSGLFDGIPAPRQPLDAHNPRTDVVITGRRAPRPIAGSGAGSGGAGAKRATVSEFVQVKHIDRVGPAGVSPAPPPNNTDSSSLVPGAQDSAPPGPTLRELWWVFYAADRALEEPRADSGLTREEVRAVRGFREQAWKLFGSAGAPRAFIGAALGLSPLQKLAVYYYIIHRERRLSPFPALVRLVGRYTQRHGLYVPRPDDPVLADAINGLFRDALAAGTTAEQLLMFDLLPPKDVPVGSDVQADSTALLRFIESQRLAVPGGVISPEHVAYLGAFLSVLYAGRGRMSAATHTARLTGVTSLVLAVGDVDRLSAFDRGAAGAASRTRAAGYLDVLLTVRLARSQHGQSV
UniProt P62136: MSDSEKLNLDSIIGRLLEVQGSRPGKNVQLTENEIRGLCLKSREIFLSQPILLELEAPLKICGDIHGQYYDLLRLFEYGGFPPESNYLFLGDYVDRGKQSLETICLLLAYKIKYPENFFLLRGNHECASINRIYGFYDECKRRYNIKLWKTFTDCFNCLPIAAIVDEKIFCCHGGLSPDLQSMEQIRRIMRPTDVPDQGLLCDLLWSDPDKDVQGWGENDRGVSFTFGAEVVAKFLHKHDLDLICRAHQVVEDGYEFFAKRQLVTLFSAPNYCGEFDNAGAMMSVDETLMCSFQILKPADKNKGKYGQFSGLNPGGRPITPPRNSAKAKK

No constants are given. Whether binding was seen depends on the method and setting. Binding seen in cells or lysates may run through a third protein. Some binding calls cover weakened binding; strength is not graded here. For some of these results: Tags and fused reporters may be left off the sequences shown.

“Myc-PP1α (from UniProt P62136 1-330) (enzyme)”: the binding result with pUL21-GFP (HSV-1) [1] is reported as “binds”.

As to “endogenous PP1α (from UniProt P62136 1-330) (enzyme)”, the binding entry in the assay with pUL21-GFP (HSV-1) [2] and with pORF38-GFP (VZV) was “binds” each time.

B1: CERT (protein, UniProt Q9Y5P4 1-624)
chain: MSDNQSWNSSGSEEDPETESGPPVERCGVLSKWTNYIHGWQDRWVVLKNNALSYYKSEDETEYGCRGSICLSKAVITPHDFDECRFDISVNDSVWYLRAQDPDHRQQWIDAIEQHKTESGYGSESSLRRHGSMVSLVSGASGYSATSTSSFKKGHSLREKLAEMETFRDILCRQVDTLQKYFDACADAVSKDELQRDKVVEDDEDDFPTTRSDGDFLHSTNGNKEKLFPHVTPKGINGIDFKGEAITFKATTAGILATLSHCIELMVKREDSWQKRLDKETEKKRRTEEAYKNAMTELKKKSHFGGPDYEEGPNSLINEEEFFDAVEAALDRQDKIEEQSQSEKVRLHWPTSLPSGDAFSSVGTHRFVQKPYSRSSSMSSIDLVSASDDVHRFSSQVEEMVQNHMTYSLQDVGGDANWQLVVEEGEMKVYRREVEENGIVLDPLKATHAVKGVTGHEVCNYFWNVDVRNDWETTIENFHVVETLADNAIIIYQTHKRVWPASQRDVLYLSVIRKIPALTENDPETWIVCNFSVDHDSAPLNNRCVRAKINVAMICQTLVSPPEGNQEISRDNILCKITYVANVNPGGWAPASVLRAVAKREYPKFLKRFTSYVQEKTAGKPILF
Regarding B1, the binding entry with pUL21-GFP (HSV-1) [2] is recorded as “binds”.

The record behind these values is PMC12723162, “Alphaherpesvirus pUL21 homologs use non-canonical sequences to compete with cellular adaptors for protein phosphatase 1 binding” (The Journal of Biological Chemistry, 2025).
